# Measured values: patent publication US6646006B2, “Enhancement of vascular function by modulation of endogenous nitric oxide production or activity” (The Board of Trustees of the Leland Stanford Junior …, priority 1993, dated 2003)
# System: hypercholesterolemic rabbits
# Assay: Oral arginine in cholesterol-fed rabbits: biochemical and physiological measurements
# Assay type: in vivo, rabbit
# Conditions: ten weeks
# Source text: Study design: (See, Cooke et al., 1992, supra) Male New Zealand white rabbits (n=49) were assigned to one of three treatment groups: 10 were fed with normal rabbit chow for ten weeks (Control); 19 received chow enriched with 1% cholesterol (Chol); and 20 received a 1% cholesterol diet supplemented with 2.25% L-arginine hydrochloride in the drinking water (Arg.). […] Subsequently the animals were sacrificed and the left main coronary artery and the thoracic aorta were harvested for studies of vascular reactivity and histomorphometry. In some animals, blood was collected for studies of platelet and monocyte reactivity.
# Results: Biochemical and physiological measurements. […] Serum cholesterol measurements were elevated equally in both groups receiving the 1% cholesterol diet [50±6 vs. 1629±422 vs. 1852±356 mg/dl respectively for Control (=10), Chol (=13), and Arg (=14)].
smiles,measurement,setting,value
N=C(N)NCCC[C@H](N)C(=O)O [L-arginine],Serum cholesterol,Arg group,1852 ± 356 mg/dL
same,"hemodynamic measurements, differences between groups",,no significant differences
